Assay results published in the supplement of paper PMC4604168 (melanoma cell lines).
The list shows a part of the results. Repeats are few or missing, and single values can be far off.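 Cells were imaged in 1,536-well plates, and nuclei stained with an antibody against cleaved PARP were counted against all DNA-stained nuclei to give the apoptosis fraction. Screening doses were chosen to leave most cells alive, and resting and induced cleaved-PARP levels differ strongly between cell lines.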

What follows are molecules tested on COLO800 (assay: cleaved PARP positive nuclei fraction relative to DMSO control; melanoma cells; higher = more apoptosis). Settings: library dose: low library concentration; 72 h.

Row | SMILES | cleaved PARP positive nuclei fraction
1 | CC1(C)CCC(c2ccc(Cl)cc2)=C(CN2CCN(c3ccc(C(=O)NS(=O)(=O)c4ccc(N[C@H](CCN5CCOCC5)CSc5ccccc5)c(S(=O)(=O)C(F)(F)F)c4)cc3)CC2)C1 + CCCS(=O)(=O)Nc1ccc(F)c(C(=O)c2c[nH]c3ncc(Cl)cc23)c1F [PLX4720] (first compound 0.4 µM, partner dose 0.08 µM) | 94.4%
2 | CN(c1ncccc1CNc1nc(Nc2ccc3c(c2)CC(=O)N3)ncc1C(F)(F)F)S(C)(=O)=O + NC1(c2ccc(-c3nc4ccn5c(=O)[nH]nc5c4cc3-c3ccccc3)cc2)CCC1 [MK2206] (first compound 0.08 µM, partner dose 0.4 µM) | 240%
3 | C[C@@H](N)c1ccc(C(=O)Nc2ccnc3[nH]ccc23)cc1 + Nc1ccn([C@@H]2O[C@H](CO)[C@@H](O)C2(F)F)c(=O)n1 [gemcitabine] (first compound 0.4 µM, partner dose 0.0004 µM) | 80.1%
4 | CS(=O)(=O)c1ccc(C(=O)Nc2ccc(Cl)c(-c3ccccn3)c2)c(Cl)c1 [vismodegib] + CCCCCCCCc1ccc(CCC(N)(CO)CO)cc1 [fingolimod] (first compound 1 µM, partner dose 2 µM) | 213%
5 | C[C@@H](N)c1ccc(C(=O)Nc2ccnc3[nH]ccc23)cc1 + Nc1ncn([C@H]2C[C@H](O)[C@@H](CO)O2)c(=O)n1 [decitabine] (first compound 0.4 µM, partner dose 0.1 µM) | 85%
